From article PMC6345199
No constants are given. Whether binding was seen depends on the method and setting. Binding seen in cells or lysates may run through a third protein. Some results given as binding are weak or reduced against the parent protein; the word gives no strength.

Amino acid sequences for entries named in this document (tags omitted). Residues count along the entry.
UniProt P23818, residues 19-907: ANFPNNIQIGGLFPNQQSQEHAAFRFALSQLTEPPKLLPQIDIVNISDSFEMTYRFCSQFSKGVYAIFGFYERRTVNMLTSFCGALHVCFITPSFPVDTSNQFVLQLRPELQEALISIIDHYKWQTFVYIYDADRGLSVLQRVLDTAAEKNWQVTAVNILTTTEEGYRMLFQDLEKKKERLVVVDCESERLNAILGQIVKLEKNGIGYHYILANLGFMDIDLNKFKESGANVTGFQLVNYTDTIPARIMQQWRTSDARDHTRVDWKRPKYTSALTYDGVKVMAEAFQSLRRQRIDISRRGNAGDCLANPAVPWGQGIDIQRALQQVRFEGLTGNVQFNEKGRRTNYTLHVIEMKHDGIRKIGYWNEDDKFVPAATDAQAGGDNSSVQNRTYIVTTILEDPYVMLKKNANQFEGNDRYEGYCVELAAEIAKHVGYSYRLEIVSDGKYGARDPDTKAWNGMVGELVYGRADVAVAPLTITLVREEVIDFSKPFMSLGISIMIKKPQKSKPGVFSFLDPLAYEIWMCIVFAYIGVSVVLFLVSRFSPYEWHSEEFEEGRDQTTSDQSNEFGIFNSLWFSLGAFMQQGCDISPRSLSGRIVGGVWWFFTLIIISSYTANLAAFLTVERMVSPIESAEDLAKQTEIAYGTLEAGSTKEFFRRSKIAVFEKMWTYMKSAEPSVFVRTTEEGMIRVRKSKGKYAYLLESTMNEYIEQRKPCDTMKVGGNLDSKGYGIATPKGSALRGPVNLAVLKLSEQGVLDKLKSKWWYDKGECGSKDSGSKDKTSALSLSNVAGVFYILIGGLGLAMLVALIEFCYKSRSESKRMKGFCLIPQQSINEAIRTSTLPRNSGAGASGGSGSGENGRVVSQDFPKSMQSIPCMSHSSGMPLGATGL
UniProt P23819, residues 25-883: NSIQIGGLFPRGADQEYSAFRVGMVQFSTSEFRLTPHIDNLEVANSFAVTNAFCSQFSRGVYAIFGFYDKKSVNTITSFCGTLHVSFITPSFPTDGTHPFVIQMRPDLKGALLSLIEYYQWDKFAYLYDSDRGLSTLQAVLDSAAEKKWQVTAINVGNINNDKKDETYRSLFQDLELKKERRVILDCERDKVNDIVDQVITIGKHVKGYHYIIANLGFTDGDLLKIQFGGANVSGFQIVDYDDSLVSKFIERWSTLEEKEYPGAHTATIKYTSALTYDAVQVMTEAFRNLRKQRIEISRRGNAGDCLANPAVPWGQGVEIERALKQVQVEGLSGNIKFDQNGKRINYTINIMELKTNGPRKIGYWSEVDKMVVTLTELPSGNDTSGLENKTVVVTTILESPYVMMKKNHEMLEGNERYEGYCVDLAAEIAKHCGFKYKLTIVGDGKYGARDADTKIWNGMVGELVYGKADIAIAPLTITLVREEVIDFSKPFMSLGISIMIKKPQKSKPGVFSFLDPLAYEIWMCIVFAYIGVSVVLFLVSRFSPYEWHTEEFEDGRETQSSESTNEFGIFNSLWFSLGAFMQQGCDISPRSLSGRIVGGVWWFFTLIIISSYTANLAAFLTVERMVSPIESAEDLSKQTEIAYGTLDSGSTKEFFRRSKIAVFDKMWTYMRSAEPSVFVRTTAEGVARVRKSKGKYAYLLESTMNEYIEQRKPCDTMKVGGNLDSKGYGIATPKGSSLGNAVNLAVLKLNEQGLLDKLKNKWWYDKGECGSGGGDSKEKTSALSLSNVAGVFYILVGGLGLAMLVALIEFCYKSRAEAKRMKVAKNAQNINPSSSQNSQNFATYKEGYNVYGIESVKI

Columns and labels:
[1] = biological target: endogenous GluA1 (mouse brain) (mouse (endogenous in P0 brain)) (UniProt P23818); assay: co-IP; whole-brain lysate of P0 mouse (1% Triton X-100 lysis buffer, sonicated); 2 mg total protein with 4 ug mouse anti-GluA1 (RH95) or anti-GluA2 (6C4) overnight at 4 C, protein A/G agarose; endogenous NSG2 detected
[2] = biological target: endogenous GluA2 (mouse brain) (mouse (endogenous in P0 brain)) (UniProt P23819); assay: as above

B1: endogenous NSG2 (mouse brain) (protein, UniProt P47759 1-171)
chain: MVKLNSNPGEKGAKPPSVEDGFQTVPLITPLEVNHLQLAAPEKVIVKTRTEYQPEQRNKGKFRVPKIAEFTVTILVSLALAFLACIVFLVVYKAFTYDHSCPEGFVYKHKRCIPASLDAYYSSQDPSSRSRFYTVISHYSVAKQSTARAIGPWLSAAAVIHEPKPPKTQGH
For B1, the binding [1] was “binds” and the binding [2] was “binds”.
